Measured values taken from patent US11985994B2, “Sweetener and flavor compositions, methods of making and methods of use thereof” (EPC Natural Products Co., Ltd., priority 2018, dated 2024).

Experiment: HPLC/DAD/MS analysis of reaction partners and MRI (Amadori) products
Format: physicochemical
Settings: Phe + Reb-A, Reb-B from degraded Reb-A, MRIs from degraded Phe
Description: Quantitative evaluation was performed using external standardization.

Compound: C=C1CC23CCC4C(C)(C(=O)O)CCCC4(C)C2CCC1(OC1OC(CO)C(O)C(OC2OC(CO)C(O)C(O)C2O)C1OC1OC(CO)C(O)C(O)C1O)C3 (stereo not drawn) [Reb-B, Rebaudioside B]
- % formation (pH = 5.5): 23.1%
- % formation (pH = 7.0): 22.7%
- % formation (pH = 8.5): 19.1%
